Data taken from the supplement of paper PMC10849652.
Some of the results follow.

Amino acid sequences for entries named in this document (tags omitted). A change or cut given only in a name is not applied to a line headed by its entry.
UniProt P08247, whole entry, looked up: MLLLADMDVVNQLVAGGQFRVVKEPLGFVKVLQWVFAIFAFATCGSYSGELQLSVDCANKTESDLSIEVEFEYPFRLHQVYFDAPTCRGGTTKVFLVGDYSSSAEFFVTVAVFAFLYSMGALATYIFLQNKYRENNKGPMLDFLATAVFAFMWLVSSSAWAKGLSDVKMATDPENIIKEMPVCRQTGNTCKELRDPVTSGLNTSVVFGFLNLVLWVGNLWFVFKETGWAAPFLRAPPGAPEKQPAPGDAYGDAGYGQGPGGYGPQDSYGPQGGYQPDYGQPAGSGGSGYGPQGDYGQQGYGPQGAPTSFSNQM
UniProt Q9BXI6: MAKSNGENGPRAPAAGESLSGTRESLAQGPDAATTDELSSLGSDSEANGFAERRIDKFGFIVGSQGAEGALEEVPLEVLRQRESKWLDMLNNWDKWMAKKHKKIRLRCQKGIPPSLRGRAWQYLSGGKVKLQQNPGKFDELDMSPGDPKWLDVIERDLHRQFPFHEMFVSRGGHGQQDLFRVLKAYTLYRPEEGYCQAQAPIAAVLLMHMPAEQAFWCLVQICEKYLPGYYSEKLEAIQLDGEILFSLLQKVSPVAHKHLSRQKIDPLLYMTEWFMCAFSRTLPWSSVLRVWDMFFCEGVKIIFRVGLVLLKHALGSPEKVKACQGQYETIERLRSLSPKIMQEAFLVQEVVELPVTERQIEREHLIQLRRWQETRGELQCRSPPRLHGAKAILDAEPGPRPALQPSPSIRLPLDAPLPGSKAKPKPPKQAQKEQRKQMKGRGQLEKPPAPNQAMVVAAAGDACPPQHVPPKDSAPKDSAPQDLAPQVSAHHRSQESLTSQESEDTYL
UniProt Q13033: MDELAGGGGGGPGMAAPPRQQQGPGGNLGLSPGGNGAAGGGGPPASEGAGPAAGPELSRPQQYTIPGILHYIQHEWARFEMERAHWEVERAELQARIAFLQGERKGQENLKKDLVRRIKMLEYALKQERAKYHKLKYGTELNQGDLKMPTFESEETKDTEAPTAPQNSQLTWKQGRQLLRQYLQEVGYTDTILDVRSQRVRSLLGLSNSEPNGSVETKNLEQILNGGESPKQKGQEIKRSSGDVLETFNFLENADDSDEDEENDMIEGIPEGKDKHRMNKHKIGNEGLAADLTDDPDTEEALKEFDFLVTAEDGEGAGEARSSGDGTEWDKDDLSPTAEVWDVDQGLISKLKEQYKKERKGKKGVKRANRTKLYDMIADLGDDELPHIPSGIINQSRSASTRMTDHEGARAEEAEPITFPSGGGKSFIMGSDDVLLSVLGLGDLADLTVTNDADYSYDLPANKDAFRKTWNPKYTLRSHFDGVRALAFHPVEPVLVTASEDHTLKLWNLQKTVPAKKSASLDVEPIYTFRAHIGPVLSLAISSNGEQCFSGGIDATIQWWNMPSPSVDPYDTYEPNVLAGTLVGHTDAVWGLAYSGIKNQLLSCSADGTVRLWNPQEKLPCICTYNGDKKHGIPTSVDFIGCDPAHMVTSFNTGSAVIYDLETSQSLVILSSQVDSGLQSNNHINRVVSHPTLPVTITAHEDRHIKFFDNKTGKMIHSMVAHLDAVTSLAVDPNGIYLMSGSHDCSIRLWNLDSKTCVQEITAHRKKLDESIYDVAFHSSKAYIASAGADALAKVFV
UniProt Q9UBI4: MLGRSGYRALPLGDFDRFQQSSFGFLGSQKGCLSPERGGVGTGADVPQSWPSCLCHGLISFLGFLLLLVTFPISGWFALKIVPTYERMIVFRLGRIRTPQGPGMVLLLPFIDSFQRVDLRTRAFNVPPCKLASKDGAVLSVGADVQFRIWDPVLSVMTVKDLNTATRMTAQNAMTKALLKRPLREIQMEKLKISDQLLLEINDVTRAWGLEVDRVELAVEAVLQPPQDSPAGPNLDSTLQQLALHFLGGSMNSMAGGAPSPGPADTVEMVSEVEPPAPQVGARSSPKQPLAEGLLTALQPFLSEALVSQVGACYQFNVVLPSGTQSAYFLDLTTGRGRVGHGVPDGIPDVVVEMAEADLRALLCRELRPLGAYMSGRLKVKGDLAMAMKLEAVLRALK
UniProt Q9Y2Z0: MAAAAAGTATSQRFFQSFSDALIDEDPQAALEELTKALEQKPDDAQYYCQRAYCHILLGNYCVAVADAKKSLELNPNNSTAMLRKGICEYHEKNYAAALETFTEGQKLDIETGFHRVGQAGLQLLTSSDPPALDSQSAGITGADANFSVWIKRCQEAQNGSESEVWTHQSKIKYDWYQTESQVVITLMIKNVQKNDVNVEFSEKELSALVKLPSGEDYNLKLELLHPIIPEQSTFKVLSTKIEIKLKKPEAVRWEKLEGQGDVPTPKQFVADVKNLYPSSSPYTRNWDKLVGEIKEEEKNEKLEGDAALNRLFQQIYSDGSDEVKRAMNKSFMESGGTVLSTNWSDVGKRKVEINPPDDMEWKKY
UniProt Q93075: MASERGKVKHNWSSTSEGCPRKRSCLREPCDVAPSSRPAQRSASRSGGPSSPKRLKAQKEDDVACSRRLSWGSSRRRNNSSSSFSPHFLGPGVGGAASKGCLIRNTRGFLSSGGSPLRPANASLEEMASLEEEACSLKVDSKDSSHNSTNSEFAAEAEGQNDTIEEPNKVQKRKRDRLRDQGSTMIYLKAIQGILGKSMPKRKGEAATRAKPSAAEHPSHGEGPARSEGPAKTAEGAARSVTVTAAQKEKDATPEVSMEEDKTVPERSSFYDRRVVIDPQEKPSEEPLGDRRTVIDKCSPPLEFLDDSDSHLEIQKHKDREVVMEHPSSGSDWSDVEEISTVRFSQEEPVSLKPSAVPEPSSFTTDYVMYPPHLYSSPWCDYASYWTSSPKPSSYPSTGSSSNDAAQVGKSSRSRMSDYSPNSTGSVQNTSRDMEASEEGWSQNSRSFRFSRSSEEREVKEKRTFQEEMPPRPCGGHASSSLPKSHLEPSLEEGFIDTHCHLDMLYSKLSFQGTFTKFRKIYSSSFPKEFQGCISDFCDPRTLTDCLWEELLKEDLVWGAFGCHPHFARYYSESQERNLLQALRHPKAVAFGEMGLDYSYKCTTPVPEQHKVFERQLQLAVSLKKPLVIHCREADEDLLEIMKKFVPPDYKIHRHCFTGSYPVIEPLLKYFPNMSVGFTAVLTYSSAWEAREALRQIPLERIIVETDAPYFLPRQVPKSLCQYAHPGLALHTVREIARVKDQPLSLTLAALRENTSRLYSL
UniProt Q6UWL2: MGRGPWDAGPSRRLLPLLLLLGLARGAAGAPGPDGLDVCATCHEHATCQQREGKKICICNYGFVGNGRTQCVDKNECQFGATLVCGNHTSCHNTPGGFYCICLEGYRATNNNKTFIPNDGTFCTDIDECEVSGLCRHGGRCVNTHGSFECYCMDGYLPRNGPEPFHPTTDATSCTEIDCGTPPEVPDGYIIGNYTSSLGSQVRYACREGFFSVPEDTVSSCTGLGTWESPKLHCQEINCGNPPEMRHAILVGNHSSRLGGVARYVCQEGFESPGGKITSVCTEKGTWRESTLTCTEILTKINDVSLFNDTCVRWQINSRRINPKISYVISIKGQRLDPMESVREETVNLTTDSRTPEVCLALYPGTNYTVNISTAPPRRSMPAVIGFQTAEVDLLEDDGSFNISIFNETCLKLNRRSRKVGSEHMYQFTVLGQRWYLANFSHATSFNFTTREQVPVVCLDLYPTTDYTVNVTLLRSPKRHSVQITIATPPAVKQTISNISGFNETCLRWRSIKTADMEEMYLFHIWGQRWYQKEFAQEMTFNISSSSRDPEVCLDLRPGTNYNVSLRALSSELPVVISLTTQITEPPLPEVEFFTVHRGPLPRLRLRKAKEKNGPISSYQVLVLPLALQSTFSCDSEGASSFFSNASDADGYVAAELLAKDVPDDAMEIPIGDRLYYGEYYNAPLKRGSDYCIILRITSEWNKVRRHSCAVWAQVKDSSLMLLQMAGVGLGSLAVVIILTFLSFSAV
UniProt Q16514: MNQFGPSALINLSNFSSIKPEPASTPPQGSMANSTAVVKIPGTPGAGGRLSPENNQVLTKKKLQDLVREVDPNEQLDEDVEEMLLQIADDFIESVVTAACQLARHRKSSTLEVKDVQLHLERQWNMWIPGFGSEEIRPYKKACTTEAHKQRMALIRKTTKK
UniProt Q1ZZU3: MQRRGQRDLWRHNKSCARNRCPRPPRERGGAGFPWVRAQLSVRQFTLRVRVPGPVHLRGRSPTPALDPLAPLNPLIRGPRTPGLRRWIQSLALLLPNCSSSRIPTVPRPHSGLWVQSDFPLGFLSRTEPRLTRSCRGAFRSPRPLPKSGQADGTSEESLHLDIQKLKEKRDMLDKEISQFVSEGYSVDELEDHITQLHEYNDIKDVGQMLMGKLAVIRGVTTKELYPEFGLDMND
UniProt Q9UI15: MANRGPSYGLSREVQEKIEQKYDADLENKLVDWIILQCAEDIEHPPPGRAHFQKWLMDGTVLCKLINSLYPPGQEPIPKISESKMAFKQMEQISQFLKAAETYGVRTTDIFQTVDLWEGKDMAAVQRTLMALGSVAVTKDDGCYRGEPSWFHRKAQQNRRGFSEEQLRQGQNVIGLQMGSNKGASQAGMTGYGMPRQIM
UniProt Q9NRP7: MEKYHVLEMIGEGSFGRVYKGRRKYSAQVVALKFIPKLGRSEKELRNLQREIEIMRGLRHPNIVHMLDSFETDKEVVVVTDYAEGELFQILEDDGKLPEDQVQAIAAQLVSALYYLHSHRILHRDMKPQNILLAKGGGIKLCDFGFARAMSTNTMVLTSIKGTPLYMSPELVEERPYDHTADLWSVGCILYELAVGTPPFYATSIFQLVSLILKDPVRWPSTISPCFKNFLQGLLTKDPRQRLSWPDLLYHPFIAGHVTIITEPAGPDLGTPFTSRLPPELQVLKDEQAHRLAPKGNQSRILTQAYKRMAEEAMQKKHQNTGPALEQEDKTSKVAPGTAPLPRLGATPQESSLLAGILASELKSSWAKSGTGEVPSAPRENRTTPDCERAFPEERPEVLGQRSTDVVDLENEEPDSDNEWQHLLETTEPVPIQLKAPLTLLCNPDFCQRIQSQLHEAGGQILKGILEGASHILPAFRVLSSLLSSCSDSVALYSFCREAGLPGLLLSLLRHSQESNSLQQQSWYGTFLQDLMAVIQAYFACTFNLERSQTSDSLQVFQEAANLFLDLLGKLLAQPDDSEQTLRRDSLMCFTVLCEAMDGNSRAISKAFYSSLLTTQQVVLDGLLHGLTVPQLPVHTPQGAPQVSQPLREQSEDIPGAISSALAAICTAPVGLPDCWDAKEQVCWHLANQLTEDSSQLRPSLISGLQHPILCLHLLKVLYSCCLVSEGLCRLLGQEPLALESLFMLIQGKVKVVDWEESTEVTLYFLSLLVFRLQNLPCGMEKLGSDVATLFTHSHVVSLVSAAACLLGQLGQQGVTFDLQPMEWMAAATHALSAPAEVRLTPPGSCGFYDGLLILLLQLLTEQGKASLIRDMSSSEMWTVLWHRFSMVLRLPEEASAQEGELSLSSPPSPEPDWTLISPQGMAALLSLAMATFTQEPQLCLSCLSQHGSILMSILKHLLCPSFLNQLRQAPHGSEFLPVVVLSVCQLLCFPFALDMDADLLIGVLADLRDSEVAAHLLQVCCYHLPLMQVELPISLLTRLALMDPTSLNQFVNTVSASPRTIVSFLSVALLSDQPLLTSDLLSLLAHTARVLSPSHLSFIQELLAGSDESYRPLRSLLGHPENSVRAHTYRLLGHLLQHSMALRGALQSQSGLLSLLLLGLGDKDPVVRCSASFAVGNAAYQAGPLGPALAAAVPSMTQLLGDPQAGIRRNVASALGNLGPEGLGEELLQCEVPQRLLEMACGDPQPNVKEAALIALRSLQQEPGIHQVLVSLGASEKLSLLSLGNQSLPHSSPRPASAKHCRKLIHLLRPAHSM
UniProt Q01995: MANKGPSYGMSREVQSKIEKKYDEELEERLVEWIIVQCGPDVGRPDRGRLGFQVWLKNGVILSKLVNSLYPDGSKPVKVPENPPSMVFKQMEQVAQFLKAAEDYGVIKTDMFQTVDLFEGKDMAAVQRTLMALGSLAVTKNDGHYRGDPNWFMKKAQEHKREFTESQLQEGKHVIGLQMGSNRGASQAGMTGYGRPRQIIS
UniProt P49888: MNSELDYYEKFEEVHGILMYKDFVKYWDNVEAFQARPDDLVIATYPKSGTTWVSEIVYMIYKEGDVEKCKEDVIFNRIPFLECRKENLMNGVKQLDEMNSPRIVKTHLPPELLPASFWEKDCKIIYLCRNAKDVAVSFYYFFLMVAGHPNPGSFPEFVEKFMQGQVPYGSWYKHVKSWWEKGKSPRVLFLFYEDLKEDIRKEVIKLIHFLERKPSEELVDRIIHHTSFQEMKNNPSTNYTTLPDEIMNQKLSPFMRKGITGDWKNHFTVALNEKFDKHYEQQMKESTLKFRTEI
UniProt Q8WUJ0: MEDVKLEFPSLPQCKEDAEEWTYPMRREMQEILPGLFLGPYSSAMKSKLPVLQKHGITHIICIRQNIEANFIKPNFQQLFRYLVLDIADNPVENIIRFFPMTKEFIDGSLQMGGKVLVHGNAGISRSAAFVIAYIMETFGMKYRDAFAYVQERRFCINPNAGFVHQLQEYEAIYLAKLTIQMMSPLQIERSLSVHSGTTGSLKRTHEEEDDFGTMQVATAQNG

Compound: CN(C)CC(=O)Nc1ccc2[nH]c(=O)c3ccccc3c2c1
Assay: log2 fold change, soluble protein after heating vs DMSO (PISA); higher = thermal stabilisation; K562 cells, 10 uM, 30 min; active = over 0.2 and 3.5 SD of the protein, either way, in both replicates (recomputed)
In short: (§1)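 Soluble protein was quantified by TMTpro 16plex LC-MS/MS after channel sums were equalised. It was obtained as the supernatant after 21,000xg for 90 min from pooled aliquots of K562 cells (2×10^6 cells/mL, 10 μM compound, 30 min) heated for 3 min across 48°C-58°C and extracted in PBS with 0.5% NP-40 at 4°C. Thermal stability values are relative to control samples and come from duplicates. They are given as log2 fold changes.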

| Target | log2 fold change |
| --- | --- |
| SYP (UniProt P08247) | inactive: 0.001 |
| TBC1D10A (UniProt Q9BXI6) | inactive: 0.118 |
| TAF5 (UniProt Q15542) | inactive: 0.491 |
| STRN3 isoform 2 (UniProt Q13033) | inactive: 0.18 |
| SYK (UniProt P43405) | inactive: -0.085 |
| STOML1 (UniProt Q9UBI4) | inactive: -0.348 |
| SUGT1 isoform 2 (UniProt Q9Y2Z0) | inactive: -0.123 |
| TATDN2 (UniProt Q93075) | inactive: -0.098 |
| TBC1D12 (UniProt O60347) | inactive: 0.066 |
| SUSD1 isoform 2 (UniProt Q6UWL2) | inactive: -0.174 |
| STXBP4 (UniProt Q6ZWJ1) | inactive: -0.002 |
| SUPT5H isoform 2 (UniProt O00267) | inactive: 0.149 |
| TAF12 (UniProt Q16514) | inactive: 0.089 |
| SWI5 (UniProt Q1ZZU3) | inactive: 0.008 |
| TAGLN3 (UniProt Q9UI15) | inactive: 0.022 |

Compound: CN(CCOC1=CC=C(C=C1)C[C@H]2C(=O)NC(=O)S2)C3=CC=CC=N3 (racemic) [rosiglitazone]
Assay: as above
In short: as §1

| Target | log2 fold change |
| --- | --- |
| SYP (UniProt P08247) | inactive: 0.033 |
| SUPT7L (UniProt O94864) | inactive: -0.057 |
| STK36 (UniProt Q9NRP7) | inactive: 0.021 |
| TBC1D10A (UniProt Q9BXI6) | inactive: 0.112 |
| STRN3 isoform 2 (UniProt Q13033) | inactive: -0.001 |
| SUGT1 isoform 2 (UniProt Q9Y2Z0) | inactive: 0.049 |
| SUSD1 isoform 2 (UniProt Q6UWL2) | inactive: -0.032 |
| TAF5L (UniProt O75529) | inactive: 0.099 |
| SYTL4 (UniProt Q96C24) | inactive: 0.023 |
| TAF12 (UniProt Q16514) | inactive: 0.034 |
| STS (UniProt P08842) | inactive: 0.116 |
| SWI5 (UniProt Q1ZZU3) | inactive: -0.129 |
| TAGLN3 (UniProt Q9UI15) | inactive: 0.296 |
| SUFU (UniProt Q9UMX1) | inactive: 0 |
| TAGLN (UniProt Q01995) | inactive: 0.115 |
| SULT1E1 (UniProt P49888) | inactive: 0.127 |

Compound: CN1C2=C(C3=C1C(=O)N(N=C3)CC4=CC(=CC=C4)N)SC(=C2)S(=O)C
Assay: as above
In short: as §1

| Target | log2 fold change |
| --- | --- |
| STXBP5L (UniProt Q9Y2K9) | inactive: -0.034 |
| SYP (UniProt P08247) | inactive: -0.003 |
| STK36 (UniProt Q9NRP7) | inactive: 0.018 |
| TBC1D10A (UniProt Q9BXI6) | inactive: 0.111 |
| SUZ12 (UniProt Q15022) | inactive: 0.021 |
| STK40 isoform 4 (UniProt Q8N2I9) | inactive: 0.186 |
| TAZ (UniProt Q16635) | inactive: -0.038 |
| SYK (UniProt P43405) | inactive: -0.052 |
| STYX (UniProt Q8WUJ0) | inactive: -0.072 |
| SUGT1 isoform 2 (UniProt Q9Y2Z0) | inactive: -0.109 |
| TATDN2 (UniProt Q93075) | inactive: 0.046 |
| SUSD1 isoform 2 (UniProt Q6UWL2) | inactive: -0.034 |
| SYS1 (UniProt Q8N2H4) | inactive: 0.084 |
| STK35 (UniProt Q8TDR2) | inactive: -0.152 |
| SYTL4 (UniProt Q96C24) | inactive: 0.089 |
| SWI5 (UniProt Q1ZZU3) | inactive: 0.009 |
| TAGLN3 (UniProt Q9UI15) | inactive: 0.045 |
| TAGLN (UniProt Q01995) | inactive: 0.737 |

Compound: CN1CCC(CNc2ccc3ncc(-c4cccc(OC(F)(F)F)c4)n3n2)CC1
Assay: as above
In short: as §1

| Target | log2 fold change |
| --- | --- |
| STXBP5L (UniProt Q9Y2K9) | inactive: -0.119 |
| SYP (UniProt P08247) | inactive: 0.116 |
| STK36 (UniProt Q9NRP7) | inactive: -0.472 |
| TBC1D10A (UniProt Q9BXI6) | inactive: -0.421 |
| TAF5 (UniProt Q15542) | inactive: -0.14 |
| STRN3 isoform 2 (UniProt Q13033) | inactive: 0.096 |
| STYX (UniProt Q8WUJ0) | inactive: -0.312 |
| TATDN2 (UniProt Q93075) | inactive: -0.076 |
| SUSD1 isoform 2 (UniProt Q6UWL2) | inactive: 0.063 |
| SYS1 (UniProt Q8N2H4) | inactive: -0.084 |
| STON2 isoform 3 (UniProt Q8WXE9) | inactive: 0.168 |
| TAF12 (UniProt Q16514) | inactive: -0.02 |
| TAOK2 (UniProt Q9UL54) | inactive: 0.01 |
| SWI5 (UniProt Q1ZZU3) | inactive: -0.219 |
| TAGLN (UniProt Q01995) | inactive: 0.211 |
| SULT1E1 (UniProt P49888) | inactive: 0.036 |
